Consider two substances from patent US20050079574A1.

Amino acid sequences for entries named in this document (tags omitted). Residues count along the entry.
UniProt P17948, residues 129-229: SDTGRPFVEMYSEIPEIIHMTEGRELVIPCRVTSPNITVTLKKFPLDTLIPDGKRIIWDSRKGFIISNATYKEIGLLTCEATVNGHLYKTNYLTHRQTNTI
UniProt P35968, residues 20-764: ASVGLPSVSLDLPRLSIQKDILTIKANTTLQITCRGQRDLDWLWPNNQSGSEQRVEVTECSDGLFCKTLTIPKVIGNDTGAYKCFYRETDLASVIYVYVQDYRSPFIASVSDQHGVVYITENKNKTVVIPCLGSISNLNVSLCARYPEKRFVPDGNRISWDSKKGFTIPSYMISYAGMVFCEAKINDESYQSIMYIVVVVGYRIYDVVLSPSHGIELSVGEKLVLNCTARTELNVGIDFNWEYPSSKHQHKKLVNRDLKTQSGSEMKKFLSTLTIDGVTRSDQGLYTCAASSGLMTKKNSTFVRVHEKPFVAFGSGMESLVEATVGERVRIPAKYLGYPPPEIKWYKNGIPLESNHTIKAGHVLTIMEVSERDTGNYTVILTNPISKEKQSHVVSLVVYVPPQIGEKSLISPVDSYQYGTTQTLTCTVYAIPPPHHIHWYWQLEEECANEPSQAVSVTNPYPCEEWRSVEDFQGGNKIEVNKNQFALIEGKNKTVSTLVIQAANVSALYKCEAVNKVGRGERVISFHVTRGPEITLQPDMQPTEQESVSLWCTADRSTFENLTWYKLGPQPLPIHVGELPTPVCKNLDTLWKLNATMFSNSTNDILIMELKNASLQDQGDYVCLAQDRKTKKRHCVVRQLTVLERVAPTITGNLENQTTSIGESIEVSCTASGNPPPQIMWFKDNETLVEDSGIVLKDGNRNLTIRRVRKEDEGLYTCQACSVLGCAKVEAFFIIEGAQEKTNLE

Results are given in words; binding and its absence hold for the method and conditions named. Some binding calls cover weakened binding; strength is not graded here.

Assay [1] addresses T1, mVEGF (murine Vascular Endothelial Growth Factor) (murine) (UniProt Q00731).
T1 sequence (looked up): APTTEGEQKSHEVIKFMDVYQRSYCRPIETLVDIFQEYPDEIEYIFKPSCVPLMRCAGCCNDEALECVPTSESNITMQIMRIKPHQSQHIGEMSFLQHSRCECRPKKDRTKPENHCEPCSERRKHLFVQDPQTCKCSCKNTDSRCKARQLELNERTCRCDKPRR
In words: competitive phage ELISA on coated murine VEGF; Flt1-D2 titrated against phage clones V1, V2, V4, V5, V6, V7, V8, V9, V10; only V2 is displaced.

Assay [2] deals with T1, mVEGF (murine Vascular Endothelial Growth Factor) (murine). In words: competitive phage ELISA on coated murine VEGF; KDR1-7igg titrated against phage clones V1, V2, V4, V5, V6, V7, V8, V9, V10. (ELISA stands for enzyme-linked immunosorbent assay.)

For “Flt-D2 (Domain 2 of Flt-1) (from UniProt P17948 129-229) (receptor)”, in assay [1], the binding result is “binds”.

For the substance “KDR1-7-igg (from UniProt P35968 20-764) (Fc fusion)”, the binding result in assay [2] is “binds”.
